Reference: patent publication US6558922B1, “Methods and compositions for production of floral scent compounds” (Purdue Research Foundation, priority 1999, dated 2003)

Legend:
[1] = system: Maryland True Pink Snapdragon flowers; test: Headspace collection and GC-MS of volatiles emitted from snapdragon flowers; set-up: species or system Antirrhinum majus; conditions: 5-day-old flowers; for Relative Amount: of total volatile production
[2] = system: snapdragon petal tissue (upper and lower lobes); conditions: Dudareva et al., 2000, cited from earlier work

| SMILES | Volatile Production [1] | Relative Amount [1] | Concentration of free BA in petal tissue ([2]; 12 day after anthesis) | Concentration of free BA in petal tissue ([2]; second day of anthesis) |
| --- | --- | --- | --- | --- |
| C=CC(=C)CCC=C(C)C [Myrcene] | 7.7 ± 2.1 μg/flower/24 hr | 8.1% | – | – |
| C=C/C(C)=C/CC=C(C)C [Trans-β-ocimene] | 26.0 ± 5.9 μg/flower/24 hr | 27.4% | – | – |
| O=C(O)c1ccccc1 [benzoic acid] | – | – | 0.2 mM | 2 mM |

Where two headings read alike, the source gives them in different places.
